Source: the supplement of paper PMC10032668
The other results are listed elsewhere or left out. Only hits are listed; about a third recur on repeated control peptides.

By UniProt entry, the sequences of proteins in these tests, tags left out.
PPP2R5D, Q14738, UniProt Q14738, whole entry: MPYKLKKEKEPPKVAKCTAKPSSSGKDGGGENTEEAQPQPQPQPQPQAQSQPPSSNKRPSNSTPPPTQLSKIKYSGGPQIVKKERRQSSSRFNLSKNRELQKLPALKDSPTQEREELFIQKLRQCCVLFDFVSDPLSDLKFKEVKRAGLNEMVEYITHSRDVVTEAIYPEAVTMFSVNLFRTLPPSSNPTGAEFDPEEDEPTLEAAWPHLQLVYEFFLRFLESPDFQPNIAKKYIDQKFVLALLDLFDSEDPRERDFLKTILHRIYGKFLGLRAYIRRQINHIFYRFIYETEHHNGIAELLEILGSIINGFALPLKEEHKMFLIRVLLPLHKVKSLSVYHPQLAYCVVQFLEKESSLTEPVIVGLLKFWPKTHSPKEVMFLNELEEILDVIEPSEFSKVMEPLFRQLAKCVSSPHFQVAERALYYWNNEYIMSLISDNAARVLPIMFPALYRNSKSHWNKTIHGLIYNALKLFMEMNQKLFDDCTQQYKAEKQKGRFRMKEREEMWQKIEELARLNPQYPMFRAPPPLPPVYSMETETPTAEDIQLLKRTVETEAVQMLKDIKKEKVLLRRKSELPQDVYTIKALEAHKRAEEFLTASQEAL
TUBB6, Q9BUF5, UniProt Q9BUF5, whole entry: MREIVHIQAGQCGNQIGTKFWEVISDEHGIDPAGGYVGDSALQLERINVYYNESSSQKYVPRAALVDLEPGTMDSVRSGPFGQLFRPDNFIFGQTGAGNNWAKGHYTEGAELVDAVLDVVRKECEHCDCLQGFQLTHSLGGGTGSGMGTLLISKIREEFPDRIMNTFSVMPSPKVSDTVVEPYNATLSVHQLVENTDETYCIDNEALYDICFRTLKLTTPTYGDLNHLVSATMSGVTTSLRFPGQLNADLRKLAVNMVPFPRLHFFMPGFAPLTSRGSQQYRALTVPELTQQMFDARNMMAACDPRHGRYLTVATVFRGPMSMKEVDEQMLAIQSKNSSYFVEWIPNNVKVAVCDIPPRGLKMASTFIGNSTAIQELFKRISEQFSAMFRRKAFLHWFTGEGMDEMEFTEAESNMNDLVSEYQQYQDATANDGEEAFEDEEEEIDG
ADAM29, Q9UKF5, UniProt Q9UKF5, whole entry: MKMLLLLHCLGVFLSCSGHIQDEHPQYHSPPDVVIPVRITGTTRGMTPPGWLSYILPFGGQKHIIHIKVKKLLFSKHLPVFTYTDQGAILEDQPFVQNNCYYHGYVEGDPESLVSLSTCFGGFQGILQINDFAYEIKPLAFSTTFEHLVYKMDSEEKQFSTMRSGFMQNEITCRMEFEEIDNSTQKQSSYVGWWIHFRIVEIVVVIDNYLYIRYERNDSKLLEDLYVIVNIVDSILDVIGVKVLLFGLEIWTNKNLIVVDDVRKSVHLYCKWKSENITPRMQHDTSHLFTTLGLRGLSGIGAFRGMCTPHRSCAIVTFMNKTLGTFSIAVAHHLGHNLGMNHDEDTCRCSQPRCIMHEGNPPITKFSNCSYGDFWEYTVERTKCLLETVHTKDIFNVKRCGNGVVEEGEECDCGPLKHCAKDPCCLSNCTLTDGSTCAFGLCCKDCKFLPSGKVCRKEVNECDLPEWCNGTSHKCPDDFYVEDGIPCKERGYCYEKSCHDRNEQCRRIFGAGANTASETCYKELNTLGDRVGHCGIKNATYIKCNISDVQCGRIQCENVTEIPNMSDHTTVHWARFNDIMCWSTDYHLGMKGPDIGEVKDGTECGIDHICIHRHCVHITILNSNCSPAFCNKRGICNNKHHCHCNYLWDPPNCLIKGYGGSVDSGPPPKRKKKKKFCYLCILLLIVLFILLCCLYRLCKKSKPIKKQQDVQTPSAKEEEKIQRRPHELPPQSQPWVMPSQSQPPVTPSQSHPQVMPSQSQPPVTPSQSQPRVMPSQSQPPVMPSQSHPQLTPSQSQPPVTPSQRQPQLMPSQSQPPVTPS

How the values were obtained:
Assay in all cases: PRISMA enrichment of interactor (LFQ) in peptide spot vs all other peptide spots (log2 fold change); higher = stronger / more specific binding of the interactor to the peptide
[1] = molecular target: ADNP, Q9H2P0
Description: (§1)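 PRISMA: 15-aa overlapping tiles (offset 8 aa) of 60 microproteins, plus SOS1/GLUT1 control peptides, were spot-synthesized on cellulose membranes in triplicate. Membranes were incubated with benzonase-treated HEK293T lysate, and bound proteins were identified by LC-MS/MS with LFQ. Enrichment is the log2 fold change of each protein in one spot versus all other spots. Only interactors passing the significance cutoff are listed.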

[2] = molecular target: AK4, P27144
Description: as §1

[3] = molecular target: AP3B1, O00203
Description: as §1

[4] = molecular target: ATP5PD, O75947
Description: as §1

[5] = molecular target: BAG2, O95816
Description: as §1

[6] = molecular target: CENPE, Q02224
Description: as §1

[7] = molecular target: CKS2, P33552
Description: as §1

[8] = molecular target: DDX18, Q9NVP1
Description: as §1

[9] = molecular target: DNAJA2, O60884
Description: as §1

[10] = molecular target: EIF5, P55010
Description: as §1

[11] = molecular target: FLII, Q13045
Description: as §1

[12] = molecular target: HLA-B
Description: as §1

[13] = molecular target: IGLC3, P0DOY3
Description: as §1

[14] = molecular target: INTS3, Q68E01
Description: as §1

[15] = molecular target: MAP7, Q14244
Description: as §1

[16] = molecular target: MAPK1, P28482
Description: as §1

[17] = molecular target: MKI67, P46013
Description: as §1

[18] = molecular target: MRPL11, Q9Y3B7
Description: as §1

[19] = molecular target: MRPL19, P49406
Description: as §1

[20] = molecular target: MRPS7, Q9Y2R9
Description: as §1

[21] = molecular target: NDUFA5, Q16718
Description: as §1

[22] = molecular target: NKAP, Q8N5F7
Description: as §1

[23] = molecular target: NSA2, O95478
Description: as §1

[24] = molecular target: ODF2, Q5BJF6
Description: as §1

[25] = molecular target: PCM1, Q15154
Description: as §1

[26] = molecular target: POLE, Q07864
Description: as §1

[27] = molecular target: PPIL2, Q13356
Description: as §1

[28] = molecular target: PPP2R5D, Q14738
Description: as §1

[29] = molecular target: PSMC3, P17980
Description: as §1

[30] = molecular target: PUM1, Q14671
Description: as §1

[31] = molecular target: RPUSD4, Q96CM3
Description: as §1

[32] = molecular target: RTCB, Q9Y3I0
Description: as §1

[33] = molecular target: SDAD1, Q9NVU7
Description: as §1

[34] = molecular target: SEC63, Q9UGP8
Description: as §1

[35] = molecular target: SMARCAD1, Q9H4L7
Description: as §1

[36] = molecular target: SNRNP70, P08621
Description: as §1

[37] = molecular target: SYAP1, Q96A49
Description: as §1

[38] = molecular target: TRMT5, Q32P41
Description: as §1

[39] = molecular target: ZFC3H1, O60293
Description: as §1

[40] = molecular target: ZNF207, O43670
Description: as §1

[41] = molecular target: ADAR, P55265
Description: as §1

[42] = molecular target: DHX9, Q08211
Description: as §1

[43] = molecular target: FIP1L1, Q6UN15
Description: as §1

[44] = molecular target: GNL3L, Q9NVN8
Description: as §1

[45] = molecular target: HCFC1, P51610
Description: as §1

[46] = molecular target: MPO, P05164
Description: as §1

[47] = molecular target: MRPL4, Q9BYD3
Description: as §1

[48] = molecular target: NDUFB10, O96000
Description: as §1

[49] = molecular target: PSMC4, P43686
Description: as §1

[50] = molecular target: TMEM256-PLSCR3
Description: as §1

[51] = molecular target: TUBB6, Q9BUF5
Description: as §1

[52] = molecular target: ADAM29, Q9UKF5
Description: as §1

[53] = molecular target: RBM4, Q9BWF3
Description: as §1

## EMVMLVAPFRQSSSL [IDI2-AS1]
[1]
  PRISMA enrichment of interactor (log2): 7.25
[2]
  PRISMA enrichment of interactor (log2): 6.07
[3]
  PRISMA enrichment of interactor (log2): 5.23
[4]
  PRISMA enrichment of interactor (log2): 4.68
[5]
  PRISMA enrichment of interactor (log2): 4.42
[6]
  PRISMA enrichment of interactor (log2): 6.96
[7]
  PRISMA enrichment of interactor (log2): 5.83
[8]
  PRISMA enrichment of interactor (log2): 4.82
[9]
  PRISMA enrichment of interactor (log2): 12.2
[10]
  PRISMA enrichment of interactor (log2): 5.57
[11]
  PRISMA enrichment of interactor (log2): 6.84
[12]
  PRISMA enrichment of interactor (log2): 6.83
[13]
  PRISMA enrichment of interactor (log2): 10.7
[14]
  PRISMA enrichment of interactor (log2): 3.69
[15]
  PRISMA enrichment of interactor (log2): 4.35
[16]
  PRISMA enrichment of interactor (log2): 5.1
[17]
  PRISMA enrichment of interactor (log2): 5.59
[18]
  PRISMA enrichment of interactor (log2): 6.78
[19]
  PRISMA enrichment of interactor (log2): 5.73
[20]
  PRISMA enrichment of interactor (log2): 5.9
[21]
  PRISMA enrichment of interactor (log2): 8.25
[22]
  PRISMA enrichment of interactor (log2): 5.19
[23]
  PRISMA enrichment of interactor (log2): 5.9
[24]
  PRISMA enrichment of interactor (log2): 5.01
[25]
  PRISMA enrichment of interactor (log2): 5.59
[26]
  PRISMA enrichment of interactor (log2): 5.19
[27]
  PRISMA enrichment of interactor (log2): 5.65
[28]
  PRISMA enrichment of interactor (log2): 8.23
[29]
  PRISMA enrichment of interactor (log2): 4.8
[30]
  PRISMA enrichment of interactor (log2): 4.86
[31]
  PRISMA enrichment of interactor (log2): 6.08
[32]
  PRISMA enrichment of interactor (log2): 5.19
[33]
  PRISMA enrichment of interactor (log2): 8.88
[34]
  PRISMA enrichment of interactor (log2): 4.72
[35]
  PRISMA enrichment of interactor (log2): 6.79
[36]
  PRISMA enrichment of interactor (log2): 5.8
[37]
  PRISMA enrichment of interactor (log2): 4.21
[38]
  PRISMA enrichment of interactor (log2): 8.6
[39]
  PRISMA enrichment of interactor (log2): 4.17
[40]
  PRISMA enrichment of interactor (log2): 5.14

## MLRSRVGDWAVGYRP [EBAG9]
[41]
  PRISMA enrichment of interactor (log2): 5.45
[42]
  PRISMA enrichment of interactor (log2): 7.06
[43]
  PRISMA enrichment of interactor (log2): 5.93
[44]
  PRISMA enrichment of interactor (log2): 5.48
[45]
  PRISMA enrichment of interactor (log2): 5.23
[46]
  PRISMA enrichment of interactor (log2): 5.27
[47]
  PRISMA enrichment of interactor (log2): 5.52
[48]
  PRISMA enrichment of interactor (log2): 4.63
[49]
  PRISMA enrichment of interactor (log2): 4.75
[50]
  PRISMA enrichment of interactor (log2): 5.51
[51]
  PRISMA enrichment of interactor (log2): 5.59

## SCVRSKNLLVGSGLG [BANCR]
[52]
  PRISMA enrichment of interactor (log2): 10.9
[53]
  PRISMA enrichment of interactor (log2): 4.71
